# Test results reported in PubChem BioAssay AID1671190 (National Center for Advancing Translational Sciences (NCATS), 2021).
# The chains behind the UniProt entries cited, without tags or fusion partners. Where a name states a change or a piece, a line headed by the entry shows the natural chain unless it says otherwise.
# UniProt P18054: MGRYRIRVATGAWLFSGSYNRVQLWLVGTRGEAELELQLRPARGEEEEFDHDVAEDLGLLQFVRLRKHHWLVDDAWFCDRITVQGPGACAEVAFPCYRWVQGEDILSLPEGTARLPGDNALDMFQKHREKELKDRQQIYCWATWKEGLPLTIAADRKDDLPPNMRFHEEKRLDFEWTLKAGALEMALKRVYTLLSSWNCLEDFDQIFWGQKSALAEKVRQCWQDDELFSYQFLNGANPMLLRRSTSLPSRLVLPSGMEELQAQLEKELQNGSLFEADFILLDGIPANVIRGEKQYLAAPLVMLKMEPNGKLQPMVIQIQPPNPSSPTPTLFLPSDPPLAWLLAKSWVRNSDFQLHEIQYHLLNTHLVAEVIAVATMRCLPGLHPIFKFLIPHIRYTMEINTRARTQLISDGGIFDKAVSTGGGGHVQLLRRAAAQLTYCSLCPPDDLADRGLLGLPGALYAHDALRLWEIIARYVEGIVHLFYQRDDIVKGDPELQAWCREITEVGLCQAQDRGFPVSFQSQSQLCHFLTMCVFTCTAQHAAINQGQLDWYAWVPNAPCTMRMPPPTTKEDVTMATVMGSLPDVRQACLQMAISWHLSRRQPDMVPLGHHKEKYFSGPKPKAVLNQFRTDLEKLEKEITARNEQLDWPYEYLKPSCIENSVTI
# Out of some 580,000 compounds screened, about 6,100 (1.1%) were called active. Inconclusive means that the source gave no clear call. Such entries were picked first, then a sample of the others. The call rests on the fitted dose curve; in most records, active means well fitted inhibition curve with a large enough effect; inconclusive means small, poorly fitted or top-dose-only effect, or another doubt; inactive means no such curve, though single readings can be large or run the other way. Potencies beside an inconclusive call are fits to weak or partial responses and may not hold up.
# Molecular target: Polyunsaturated fatty acid lipoxygenase ALOX12 (Homo sapiens) (UniProt P18054)
# Test: Primary qHTS assay for inhibitors of human arachidonate 12S-lipoxygenase (ALOX12): Round 2
# Settings: purified 12hLO, xylenol orange hydroperoxide absorbance; activity change, negative = inhibition: at 108 µM (top of the series) unless noted
# In short: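 Purified human 12hLO (150 nM final) in 25 mM Hepes, 0.01% Triton X-100, pH 7.0 was preincubated 15 min at room temperature with compound. Then 40 uM arachidonic acid was added, 30 min. Hydroperoxide was read by Fe-XO absorbance ratio 573/405 nm.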
# On the % scale 0 is the no-effect control and ±100 the full control effect; potency means the concentration at half of the fitted maximal effect.
SMILES,Potency,"activity change, negative = inhibition"
COc1ccc(NC(=O)CCS(=O)(=O)c2nc(-c3ccccc3)cc(C(F)(F)F)n2)cc1,inactive,–
CNc1ccc(Cl)cc1S(=O)(=O)c1ccccc1[N+](=O)[O-],inactive,–
O=C(Nc1ccc2nc(-c3cccs3)c(-c3cccs3)nc2c1)N1CCOCC1,inactive,–
COc1cc(S(=O)(=O)Nc2ccc(S(C)(=O)=O)cc2)ccc1NC(C)=O,inactive,–
N#Cc1ccc(S(=O)(=O)N2CCN(c3ncccn3)CC2)cc1,"inconclusive: 100 µM [inhibitor, single point]",–
Cc1ccccc1Cn1c(C)c(C(=O)NCC(C)C)sc1=O,"inconclusive: 56.2 µM [inhibitor, single point]",–
CC(O)CNc1nc2sc3c(c2c(=O)n1Cc1ccco1)CCCCC3 (stereo unspecified),inactive,–
Cn1c(C(=O)N2CCNc3cnc(Nc4cccc(C(F)(F)F)c4)nc3C2)cc2ccccc21,"inconclusive: 14.1 µM [inhibitor, full curve]",–
Cc1ccc(CSc2c(C)cnc3c2c(=O)n(C)c(=O)n3C)cc1,inactive,–
O=C(N/N=C/c1ccccn1)c1cc(-c2ccc(Br)s2)[nH]n1,inactive,–
CCOC(=O)C1=C(CN2CCN(c3ccc(Cl)cc3)CC2)NC(=O)NC1c1ccc(OC)cc1 (stereo unspecified),"inconclusive: 112 µM [inhibitor, partial curve, poor fit]",–
O=C(c1cccc(OC2CN(Cc3ccc(F)cc3F)C2)c1)N1CCCC1,inactive,–
CC(C)CC(N)c1csc(NC(=O)Nc2ccccc2-c2ccccc2)n1 (stereo unspecified),"inconclusive: 28.2 µM [inhibitor, single point]",–
O=C1C(C2=CCCCC2)CCCC1C1=CCCCC1 (stereo unspecified),"inconclusive: 0.178 µM [inhibitor, full curve, poor fit]",–
Cc1cc(/C=N/O)c(C)n1-c1ccccc1,"inconclusive: 70.8 µM [inhibitor, single point]",–
O=C(NCC(O)c1ccccc1C(F)(F)F)c1cnccn1 (stereo unspecified),inactive,–
CCOC(=O)C1(C)CCCN(C(=O)c2snnc2C)C1 (stereo unspecified),"inconclusive: 35.5 µM [inhibitor, single point]",–
O=C1CC2(CCN(CC3CCCC3)C2)Nc2ccccc2N1 (stereo unspecified),–,inactive: 0.284% [at 6.33 µM]
COC(=O)c1ccc(C2Sc3ccccc3NC3=C2C(=O)c2ccccc23)cc1 (stereo unspecified),"inconclusive: 50.1 µM [inhibitor, partial curve, poor fit]",–
O=C1OC(c2ccccc2)=C/C1=C/N1CCCCC1,"inconclusive: 39.8 µM [inhibitor, partial curve, poor fit]",–
O=C(Nc1ccc(Oc2ccccc2)cc1)c1ccc2nc([C@@H]3O[C@H](CO)[C@H](O)[C@H](O)[C@H]3O)[nH]c2c1,"inconclusive: 50.1 µM [inhibitor, partial curve, poor fit]",–
O=C(CSc1nccn(-c2cccc(F)c2)c1=O)Nc1ccc(Cl)cc1F,"inconclusive: 44.7 µM [inhibitor, partial curve, poor fit]",–
CCCNC(=O)NC(=O)COC(=O)c1ccc(OC)c(S(=O)(=O)N2CCCc3ccccc32)c1,"inconclusive: 126 µM [inhibitor, single point]",–

# Molecules listed so far with a CF3 group, in the order listed:
SMILES,Potency,"activity change, negative = inhibition"
COc1ccc(NC(=O)CCS(=O)(=O)c2nc(-c3ccccc3)cc(C(F)(F)F)n2)cc1,inactive,–
Cn1c(C(=O)N2CCNc3cnc(Nc4cccc(C(F)(F)F)c4)nc3C2)cc2ccccc21,"inconclusive: 14.1 µM [inhibitor, full curve]",–
O=C(NCC(O)c1ccccc1C(F)(F)F)c1cnccn1 (stereo unspecified),inactive,–

# Further results

SMILES,Potency,"activity change, negative = inhibition"
O=C(NC1CC1)c1cc(-c2ccccc2)nc2ccccc12,inactive,–
COc1cccc2sc(NC(=O)c3ccc4c(c3)OCCO4)nc12,"inconclusive: 63.1 µM [inhibitor, partial curve, poor fit]",–
CC(C)c1ccc(CN2CC[C@@H]3OCC(=O)N(C(C)C)[C@H]3CC2)cc1,"inconclusive: 63.1 µM [inhibitor, full curve]",–
Cc1nc(N)nc(Nc2ccc(Cl)cc2)c1Br,inactive,–
O=C(OCc1ccc([N+](=O)[O-])cc1)c1c2c(nc3ccccc13)CCC2,"inconclusive: 56.2 µM [inhibitor, single point]",–
S=c1[nH]nc(NC2CCCCC2)s1,"inconclusive: 15.8 µM [inhibitor, full curve, poor fit]",–
COc1cc(CNC(=O)c2cc3cccc(OC)c3oc2=O)ccc1OC(F)F,inactive,–
CC(C)NC(=O)N1CCC(c2noc(-c3ccccc3)n2)C1 (stereo unspecified),inactive,–
COc1cccc(CC(=O)N[C@@H]2CN(c3ncccn3)C[C@H]2CO)c1,"inconclusive: 2 µM [inhibitor, full curve]",–
O=C(c1cc(-c2ccco2)[nH]n1)N1CCN(c2ccc(N3CCOCC3)nn2)CC1,"inconclusive: 31.6 µM [inhibitor, partial curve, poor fit]",–
CC(C)C1Nc2c(O)cc(Cl)c([N+](=O)[O-])c2C2C=CCC21 (stereo unspecified),"inconclusive: 50.1 µM [inhibitor, partial curve, poor fit]",–
CC(=O)c1ccc(NC(=O)COC(=O)c2cc(C)nc3ccccc23)cc1,"inconclusive: 28.2 µM [inhibitor, partial curve, poor fit]",–
COc1ccc2c(c1)C1C=CCC1C(c1cc3c(cc1Br)OCO3)N2 (stereo unspecified),inactive,–
CC(C)[C@@H](CO)NC(=O)c1ccc2c3n(nc2c1)-c1ccccc1CO3,inactive,–
COc1ccc(C(=O)CSc2nnc(COc3ccccc3)n2Cc2ccco2)cc1,"inconclusive: 0.224 µM [inhibitor, full curve, poor fit]",–
CC1(C)CC(=O)C(C2=NC3(CCCCCC3)Cc3ccccc32)=C(O)C1,"inconclusive: 100 µM [inhibitor, partial curve, poor fit]",–
CC1(C)[C@H]2CC[C@@H](CNC(=O)c3ccccn3)[C@@H]1C2,inactive,–
C=CCn1c(-c2ccc(OC)c(OC)c2)cs/c1=N\c1ccccn1,"inconclusive: 31.6 µM [inhibitor, single point]",–
O=C(c1ccncc1)N1N=C(C2CC2)CC1(O)C(F)(F)F (stereo unspecified),inactive,–
CN1CCN(c2nc(-c3ccccn3)nc3ccccc23)CC1,inactive,–
CC(C)(C)c1csc(NC(=O)CS(=O)(=O)c2ccccc2)n1,"inconclusive: 100 µM [inhibitor, single point]",–
O=C(COC(=O)CC1CCCC1)Nc1ccc(Cl)cc1,"inconclusive: 89.1 µM [inhibitor, single point]",–
O=C1N=c2ccccc2=C1c1sc(Nc2cccc(O)c2)nc1O,"inconclusive: 35.5 µM [inhibitor, full curve, poor fit]",–
